For assay [1], the target named is FLAG-TRIM47 (human) (UniProt Q96LD4). As to the kind of experiment: co-IP; HEK293T co-transfected with FLAG-TRIM47 and a MYC-tagged partner for 48 h; RIPA lysis; anti-FLAG or anti-MYC antibody overnight at 4 °C, protein A/G magnetic beads 2 h; western blot. Background: Immunoblotting shows a protein as a band on a membrane.
Assay [2] concerns the target T1, MYC-CARM1 (human) (UniProt Q86X55).
T1 sequence: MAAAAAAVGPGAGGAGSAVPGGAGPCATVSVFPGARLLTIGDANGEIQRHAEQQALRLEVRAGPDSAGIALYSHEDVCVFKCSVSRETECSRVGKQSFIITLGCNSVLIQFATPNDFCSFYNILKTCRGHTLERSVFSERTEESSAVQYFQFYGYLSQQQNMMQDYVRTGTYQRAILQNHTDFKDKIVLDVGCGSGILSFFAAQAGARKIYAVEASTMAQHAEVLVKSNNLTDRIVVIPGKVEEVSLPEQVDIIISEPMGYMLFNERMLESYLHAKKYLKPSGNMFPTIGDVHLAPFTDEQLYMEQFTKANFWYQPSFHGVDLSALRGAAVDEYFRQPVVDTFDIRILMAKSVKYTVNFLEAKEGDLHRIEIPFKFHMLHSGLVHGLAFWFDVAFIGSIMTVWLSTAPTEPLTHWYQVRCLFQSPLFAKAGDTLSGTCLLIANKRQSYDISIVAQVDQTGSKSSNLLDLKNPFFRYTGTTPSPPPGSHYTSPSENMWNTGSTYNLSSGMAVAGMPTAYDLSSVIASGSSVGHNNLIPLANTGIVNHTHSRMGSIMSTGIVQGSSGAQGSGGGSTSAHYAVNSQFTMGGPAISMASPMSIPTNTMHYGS
Described as above.

Sequences of proteins named here, by UniProt entry; tags and fusion partners are left off.
UniProt Q96LD4: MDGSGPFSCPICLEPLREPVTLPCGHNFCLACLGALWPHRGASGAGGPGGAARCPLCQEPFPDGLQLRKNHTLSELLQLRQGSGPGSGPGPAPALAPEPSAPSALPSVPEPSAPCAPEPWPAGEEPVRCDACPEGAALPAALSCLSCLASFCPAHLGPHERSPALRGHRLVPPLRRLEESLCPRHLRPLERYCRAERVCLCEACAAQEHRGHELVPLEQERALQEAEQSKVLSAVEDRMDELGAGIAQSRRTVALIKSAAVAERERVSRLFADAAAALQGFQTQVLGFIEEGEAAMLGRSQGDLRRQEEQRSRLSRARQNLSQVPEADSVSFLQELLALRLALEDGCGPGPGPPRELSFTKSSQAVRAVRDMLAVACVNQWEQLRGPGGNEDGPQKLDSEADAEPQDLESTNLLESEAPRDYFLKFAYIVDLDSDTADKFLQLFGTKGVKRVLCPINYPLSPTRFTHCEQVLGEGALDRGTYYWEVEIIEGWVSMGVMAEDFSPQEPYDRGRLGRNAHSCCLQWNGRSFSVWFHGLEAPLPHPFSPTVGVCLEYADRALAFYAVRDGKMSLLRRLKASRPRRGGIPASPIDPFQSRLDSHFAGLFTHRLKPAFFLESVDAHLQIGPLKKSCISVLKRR
UniProt Q96SW2: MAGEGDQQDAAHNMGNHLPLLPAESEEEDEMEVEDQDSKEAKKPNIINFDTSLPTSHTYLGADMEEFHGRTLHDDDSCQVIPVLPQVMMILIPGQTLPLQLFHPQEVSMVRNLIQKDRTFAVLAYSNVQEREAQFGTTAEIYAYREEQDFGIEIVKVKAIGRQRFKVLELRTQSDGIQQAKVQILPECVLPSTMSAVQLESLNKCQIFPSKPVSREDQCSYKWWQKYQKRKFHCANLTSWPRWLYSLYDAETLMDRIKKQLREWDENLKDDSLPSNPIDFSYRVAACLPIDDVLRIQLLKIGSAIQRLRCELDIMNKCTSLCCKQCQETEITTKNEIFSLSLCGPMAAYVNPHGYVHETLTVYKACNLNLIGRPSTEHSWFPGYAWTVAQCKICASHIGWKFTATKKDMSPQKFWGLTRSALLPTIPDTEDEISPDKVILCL
UniProt O95863: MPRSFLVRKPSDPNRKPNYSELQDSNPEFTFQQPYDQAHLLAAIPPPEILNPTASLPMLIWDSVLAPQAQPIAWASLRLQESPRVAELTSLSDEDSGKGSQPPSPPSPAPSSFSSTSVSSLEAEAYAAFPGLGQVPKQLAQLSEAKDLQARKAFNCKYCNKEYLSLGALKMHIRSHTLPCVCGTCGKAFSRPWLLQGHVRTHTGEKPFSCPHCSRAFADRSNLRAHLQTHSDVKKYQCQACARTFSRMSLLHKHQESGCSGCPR

Assay [3] addresses TRIM47 (endogenous, SMMC7721) (human (endogenous in SMMC7721)) (UniProt Q96LD4). As to the kind of experiment: co-IP; SMMC7721 cells treated with HY12759 for 8 h; total extracts immunoprecipitated with anti-TRIM47 antibody; blot with anti-CRBN; endogenous proteins.

Four substances from PMC11579460 can be followed below.

These are yes or no findings as the source states them, for the method shown. In cells and extracts the contact can be indirect. Some results given as binding are weak or reduced against the parent protein; the word gives no strength. For some of these results: Sequences can lack the tags named with a protein.

On to MYC-CRBN (from UniProt Q96SW2 1-442), for which the binding result in assay [1] is “binds”. As to FLAG-TRIM47 (from UniProt Q96LD4 1-638), the binding result in assay [2] is on record as “binds”. For the substance MYC-SNAI1 (from UniProt O95863 1-264), the binding entry in assay [1] was “binds”.

For the substance “CRBN (endogenous, SMMC7721) (from UniProt Q96SW2 1-442)”, in assay [3], the binding entry is recorded as “binds”.
